According to paper PMC9921851, “Synthesis and Preclinical Evaluation of Three Novel ^68Ga-Labeled Bispecific PSMA/FAP-Targeting Tracers for Prostate Cancer Imaging” (Molecules, 2023):

Legend:
[1] = system: HEK293T:hFAP tumor xenografts; experiment: PET/CT imaging in mice bearing HEK293T:hFAP tumor xenografts; type: in vivo; conditions: PET images acquired at 1 h post injection
LNCaP tumor xenografts = experiment: PET/CT imaging in mice bearing LNCaP tumor xenografts; type: in vivo; conditions: PET images acquired at 1 h post injection

Q: How did the “Visualization of HEK293T:hFAP tumor xenografts in PET images” value [1] turn out when `N#C[C@@H]1CC(F)(F)CN1C(=O)CNC(=O)c1ccnc2ccc(OCCCc3cn(CC(=O)N[C@@H](CCCCNC(=O)CN4CCN(CC(=O)[O-])CCN(CC(=O)[O-])CCN(CC(=O)[O-])CC4)C(=O)NCC(=O)NC[C@H]4CC[C@H](C(=O)N[C@@H](Cc5c6ccccc6cc6ccccc56)C(=O)NCCCC[C@H](NC(=O)N[C@@H](CCC(=O)O)C(=O)O)C(=O)O)CC4)nn3)cc12.[68Ga+3]` [[^68Ga]Ga-AV01017] was run?
A: barely visualized

Q: And the “Visualization of LNCaP tumor xenografts in PET images” value (LNCaP tumor xenografts)?
A: barely visualized

Q: For `N#C[C@@H]1CC(F)(F)CN1C(=O)CNC(=O)c1ccnc2ccc(-c3cn(CC(=O)N[C@@H](CCCCNC(=O)CN4CCN(CC(=O)[O-])CCN(CC(=O)[O-])CCN(CC(=O)[O-])CC4)C(=O)NCC(=O)NC[C@H]4CC[C@H](C(=O)N[C@@H](Cc5c6ccccc6cc6ccccc56)C(=O)NCCCC[C@H](NC(=O)N[C@@H](CCC(=O)O)C(=O)O)C(=O)O)CC4)nn3)cc12.[68Ga+3]` [[^68Ga]Ga-AV01030], which “Visualization of HEK293T:hFAP tumor xenografts in PET images” value [1] is on record?
A: clearly visualized

Q: And the “Visualization of LNCaP tumor xenografts in PET images” value (LNCaP tumor xenografts)?
A: barely visualized

Q: How did the “Visualization of HEK293T:hFAP tumor xenografts in PET images” value [1] turn out when `N#C[C@@H]1CC(F)(F)CN1C(=O)CNC(=O)c1ccnc2ccc(OCc3cn(CC(=O)N[C@@H](CCCCNC(=O)CN4CCN(CC(=O)[O-])CCN(CC(=O)[O-])CCN(CC(=O)[O-])CC4)C(=O)NCC(=O)NC[C@H]4CC[C@H](C(=O)N[C@@H](Cc5c6ccccc6cc6ccccc56)C(=O)NCCCC[C@H](NC(=O)N[C@@H](CCC(=O)O)C(=O)O)C(=O)O)CC4)nn3)cc12.[68Ga+3]` [[^68Ga]Ga-AV01038] was run?
A: barely visualized

Q: And the “Visualization of LNCaP tumor xenografts in PET images” value (LNCaP tumor xenografts)?
A: barely visualized

Q: Which “Visualization of HEK293T:hFAP tumor xenografts in PET images” value [1] does the source give for `N#C[C@@H]1CC(F)(F)CN1C(=O)CNC(=O)c1ccnc2ccc(OCCCN3CCN(C(=O)CN4CCN(CC(=O)[O-])CCN(CC(=O)[O-])CCN(CC(=O)[O-])CC4)CC3)cc12.[68Ga+3]` [[^68Ga]Ga-FAPI-04, reference compound] here?
A: clearly visualized

Q: And the “Visualization of LNCaP tumor xenografts in PET images” value (LNCaP tumor xenografts)?
A: not visualized

Q: With `O=C([O-])CN1CCN(CC(=O)[O-])CCN(CC(=O)NC[C@H]2CC[C@H](C(=O)N[C@@H](Cc3c4ccccc4cc4ccccc34)C(=O)NCCCC[C@H](NC(=O)N[C@@H](CCC(=O)O)C(=O)O)C(=O)O)CC2)CCN(CC(=O)[O-])CC1.[68Ga+3]` [[^68Ga]Ga-HTK03041, reference compound] as the compound, how does the “Visualization of HEK293T:hFAP tumor xenografts in PET images” value [1] read?
A: not visualized

Q: And the “Visualization of LNCaP tumor xenografts in PET images” value (LNCaP tumor xenografts)?
A: clearly visualized
